PMC3412845, “Waking Action of Ursodeoxycholic Acid (UDCA) Involves Histamine and GABAA Receptor Block” (PLoS ONE, 2012)

Test system: GABAA receptors of HDC−/− TMN neurons
Test: GABA-evoked whole-cell currents in TMN neurons from HDC−/− mice
Type: cell-based, mouse
Conditions: read-out: GABA potency EC50; adult HDC−/− mice, n = 15
Description: Recordings from histaminergic neurons in male Wistar rat (22–26 day old) or 30–60 day old mouse (SV129, histidine decarboxylase deficient HDC−/− or their wild type littermates) hypothalamic slices were performed as previously described. Slices were obtained between 9 and 11 a.m. In the beginning of whole-cell voltage clamp recordings TMN neurons were identified with the help of DIC microscopy and electrophysiological criteria as previously described. Inhibitory postsynaptic currents (IPSCs) were evoked by local stimulation through a bipolar stainless-steel stimulating electrode (50 µm; WPI, UK). The stimulation of axonal endings coming to TMN from ventrolateral preoptic area (VLPO) was done as described in [22]. […] Individual neurons were separated by vibrodissociation after brief preincubation with papain from the hypothalamic slices of mice or rats and identified as TMN neurons according to their size and shape. Identification was confirmed post hoc with the single-cell RT-PCR (all data presented in the manuscript were obtained from histidine decarboxylase-expressing neurons), [40]. TMN neurons from HDC−/− mice were identified by the expression of peripherin [16]. […] Membrane potentials were not corrected for liquid junction potential (5.6 mV, calculated with LJPCalc, Barry, 1994). […]

Structure (SMILES): NCCCC(=O)O [GABA]
- EC50: 15.6 ± 5 µM
